Primary screen of a compound library

The values are deposited in ChEMBL (CHEMBL3988442, “University of Dundee, Small-Polar-MMV Screening Library” (2021)).

Mtb glucose medium: 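Growth of Mycobacterium tuberculosis over 3 days (7H9 medium with glucose and tyloxapol); the read-out is not stated. Compounds at 50 µM. Direction is inferred from retests: higher values go with more growth inhibition. Of about 69,000 compounds tested this way, about 760 (1.1%) reached 50% or more in at least one test.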
Mtb cholesterol medium: 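Growth of Mycobacterium tuberculosis over 4 days (cholesterol / DPPC medium with tyloxapol); the read-out is not stated. Compounds at 50 µM. The record gives no direction; compounds that gave an IC50 in retests scored well above the rest, so higher reads as more growth inhibition. Of about 69,000 compounds tested this way, about 370 (0.54%) reached 50% or more in at least one test.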

Each number is a percent effect as filed. How 0% and 100% were set is not recorded. Most values in the screen are low, and negative values occur. This is an unselected part of the compounds tested. Two or more numbers in one place are separate tests of the same structure; such repeats can differ widely.

| # | structure | Mtb glucose medium | Mtb cholesterol medium |
|---|---|---|---|
| 1 | `CCCSCC(=O)N1CCCC2(CCC(=O)N(CCc3c[nH]cn3)C2)C1` (configuration not stated) | 23.05 and 0.189 | 6.943 |
| 2 | `CS(=O)(=O)NC1CCN(Cc2coc(-c3ccccc3)n2)CC1` | -18.69 and 0.6123 | -19.93 |
| 3 | `Cc1cc(-c2nn(C)c(Cl)c2CN2CC[C@H](CO)[C@@H](O)C2)no1` | -39.26 | -39.24 |
| 4 | `CCc1noc(CC)c1CNC(=O)Nc1ccc2[nH]nnc2c1` | 29.34 | 13.1 |
| 5 | `[H][C@@]12CCCCN(C)[C@]1([H])[C@@H](c1ccccc1)CCN2C(=O)c1ccccc1` | 57.53 | 29.33 |
| 6 | `C[C@@H]1CN(C(=O)CCCn2nnc(-c3ccc(F)cc3)n2)C[C@]1(C)O` | -0.9184 | -23.34 |
| 7 | `CCCc1nc(C)c(C(=O)NC2CCN(C3CC3)C2)s1` (configuration not stated) | -15.89 | 2.243 |
| 8 | `CCc1nc(C)c(C(=O)NCCNC(=O)c2cccs2)s1` | -5.077 | -6.604 |
| 9 | `CS(=O)(=O)N1Cc2nccn2CC(CN2CCCC2)C1` (configuration not stated) | -5.97 and 11.34 | -4.847 and -2.448 |
| 10 | `Cn1cc(C(=O)CC2CCCN2C(=O)c2coc3ccccc23)cn1` (configuration not stated) | 11.01 | 10.31 |
| 11 | `O=C(O)C(F)(F)F.O=C(O)C(F)(F)F.O=C(O)C(F)(F)F.[H][C@@]12CCN(Cc3ccccn3)C[C@]1(C(=O)NCc1ccccn1)CCO2` | 15.51 | 6.486 |
| 12 | `COc1ccc(-c2nc(C3(NC(=O)OC(C)(C)C)CCC3)no2)cn1` | 18.76 | 7.478 |
| 13 | `CCN1CCOC(CNCc2ccc(C)s2)C1` (configuration not stated) | 8.273 | 15.51 |
| 14 | `CCc1nc(CN2CCN(C(=O)COCc3ccccc3)CC2)no1` | 33.41 | 4.565 |
| 15 | `O=C(O)C(F)(F)F.O=C(O)C(F)(F)F.O=c1ccc2c(n1Cc1ccncc1)CCN(Cc1ccoc1)CC2` | -17.6 | -8.822 |
| 16 | `O=C1CN(C(=O)OCc2ccccc2)CC(O)CN1Cc1ccco1` (configuration not stated) | -20.73 | -25.4 |
| 17 | `COCCO[C@H]1CCN(C(=O)c2cnoc2C)[C@H]1Cc1cnn(C)c1` | -7.896 | -5.486 and -13.89 |
| 18 | `CCn1ccnc1CN1CCN(CC(=O)NC(=O)NC2CC2)CC1` | -10.27 | -10.4 |
| 19 | `CC(=O)N[C@@H]1CN(c2nc(CO)cs2)C[C@H]1c1ccc(C)o1` | -38.53 | -22.43 |
| 20 | `CC(=O)N1CCN([C@@H]2CC[C@@H](NC(=O)c3cc(C)cs3)[C@H]2O)CC1` | 2.695 | 0.3044 |
| 21 | `CN(Cc1cccnc1)Cc1cn2c(n1)CN(C1CCOCC1)CC2` | 2.764 | 8.409 |
| 22 | `COc1ccc(C2SCC(=O)Nc3ccsc32)cc1` (configuration not stated) | -0.9461 | -14.33 |
| 23 | `CC(=O)NC1CCN(c2ccc(C#N)cc2C(F)(F)F)CC1` | -21.96 | -2.283 |
| 24 | `CN1CCCC(Cc2nccnc2Cl)CC1` (configuration not stated) | 32.71 | 2.505 |
| 25 | `Cc1nc(C2CCCN2Cc2nccn2CC(F)(F)F)no1` (configuration not stated) | 7.673 | -9.517 |
| 26 | `Cc1ccc(N2CC3(CCN(S(=O)(=O)C4CC4)C3)C2)nn1` | -1.721 and -11.6 | -1.73 |
| 27 | `Cl.Fc1ccccc1Cn1c(C2CCNCC2)cc2cccnc21` | 21.27 | 20.37 and 10.15 |
| 28 | `CSCC[C@H](NC(=O)CCn1ccc2c(Cl)cccc21)C(=O)O` | -14.14 | -39.14 |
| 29 | `COc1cc(C)c(-c2ccc(F)c3c2OC(CN)C3)cc1C` (configuration not stated) | 41.02 | 51.09 and 46.89 |
| 30 | `Cc1nnc(CN(Cc2cccc(Br)c2)C2CC2)o1` | 27.57 and 25.95 | 12.58 |
| 31 | `O=C(NCCOc1ncc(Cl)cc1Cl)NCc1ccncc1` | 12.08 | -4.52 and 1.798 |
| 32 | `O=C(O)C(F)(F)F.[H][C@]12CCN(C(=O)c3occc3C)C[C@@]1([H])OCCN(C1CCOCC1)C2` | 2.098 | -2.812 |
| 33 | `Cc1nc(C2CCCN(C(=O)c3ccoc3)C2)no1` (configuration not stated) | -3.59 | 6.047 |
| 34 | `COc1cc2[nH]c(C(=O)O)cc2c(OC)c1C` | -10.33 | -4.487 |
| 35 | `CCOCCCn1c(NC(=O)c2cnc(C)s2)nc2ccccc21` | 3.313 | -0.2787 |
| 36 | `c1ccc(C2CN(CCc3ccncc3)CCO2)cc1` (configuration not stated) | 19.95 | 5.133 |
| 37 | `Cc1ccc(NCc2cc(C#N)ccc2F)cc1-n1nnnc1C` | 0.5026 | 5.992 |
| 38 | `O=C(Nc1cccnc1)NC(CCCO)c1ccccc1` (configuration not stated) | -28.31 | 13.16 |
| 39 | `CCc1cccc(N2CCC(NC(=O)c3ccncc3)CC2)c1` | -14.28 | -4.653 |
| 40 | `Cc1cccc(C(=O)N2C[C@@H](C)[C@@]3(CCN(c4ccsc4)C3=O)C2)n1.O=C(O)C(F)(F)F` | -27.9 | 7.146 and 3.451 |
| 41 | `Cc1ccc(CNC2(Cc3cc(-c4ccccn4)on3)COC2)o1` | 4.744 and 4.821 | -23.45 |
| 42 | `c1ccc(OCCN2CCC(c3nnc(-c4cccnc4)o3)CC2)cc1` | 10.38 | 11.47 |

Some entries from above, unchanged:

structure,Mtb glucose medium,Mtb cholesterol medium
CCOCCCn1c(NC(=O)c2cnc(C)s2)nc2ccccc21,3.313,-0.2787
O=C(O)C(F)(F)F.O=C(O)C(F)(F)F.O=c1ccc2c(n1Cc1ccncc1)CCN(Cc1ccoc1)CC2,-17.6,-8.822
CC(=O)N1CCN([C@@H]2CC[C@@H](NC(=O)c3cc(C)cs3)[C@H]2O)CC1,2.695,0.3044